PubChem BioAssay AID504807 – Drosophila RNAi Screening Center – 2011
Screen: 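Knock-downs that turn on a GFP reporter of faulty histone mRNA processing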. Cell system: Drosophila Dmel-2 cells. Reagent: long dsRNA against Drosophila genes, 250 ng dsRNA per well. Duration: about 5 days (reporter added on day 3, imaged 2 days later). Measured: 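Per-well images of a GFP reporter, scored by eye from image collages against nearby wells and a U7 snRNA oligo positive control; hits graded weak, medium or strong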. Active means: 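Wells judged by eye for brighter GFP reporter signal, and only dsRNAs whose increase held up on retesting count as hits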. Meaning of the calls: active = confirmed hit; inactive = not confirmed.
Only reagents picked out of a larger screen are listed. 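All listed dsRNAs looked positive in the first pass but only 20 held up on retesting; weak-to-strong grades are not deposited.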 Names joined by + are all predicted targets of the reagent.

Gene,dsRNA,outcome
CG15375,DRSC18045,inactive
His2Av (Histone H2A variant),DRSC16702,active
lola (longitudinals lacking),DRSC05222,active
Rcd5 (Reduction in Cnn dots 5),DRSC08180,active
Cad86C (Cadherin 86C),DRSC15587,inactive
CG14717,DRSC14940,inactive
Obp93a (Odorant-binding protein 93a),DRSC15220,inactive
CG31183,DRSC14403,inactive
Ae2 (Anion exchanger 2),DRSC08997,inactive
dpr4 (defective proboscis extension response 4),DRSC14531,inactive
CG13247,DRSC11695,inactive
Fit1 (Fermitin 1),DRSC08450,inactive
Tcs1 + Polr3K,DRSC05988,inactive
Orct2 (Organic cation transporter 2),DRSC14613,inactive
CG14565,DRSC11726,inactive
CG11437,DRSC11659,inactive
"ATPsynbetaL (ATP synthase, beta subunit-like)",DRSC10503,inactive
Cadps (Calcium-dependent secretion activator),DRSC21057,inactive
Stt3B,DRSC16781,inactive
kuz (kuzbanian),DRSC03555,inactive
CG10562,DRSC14257,inactive
GstD7 (Glutathione S transferase D7),DRSC16688,inactive
Trxr2 (Thioredoxin reductase 2),DRSC11900,inactive
Rbp6 (RNA-binding protein 6),DRSC10662,inactive
CycG (Cyclin G),DRSC23345,inactive
"Fis1 (Fission, mitochondrial 1)",DRSC07772,inactive
CG42512 + CG32573,DRSC19906,inactive
CG32694,DRSC17855,inactive
CG6071,DRSC10579,inactive
Tctp (Translationally controlled tumor protein),DRSC15649,inactive
CG32298 + CG32299,DRSC22354,inactive
Pkc98E (Protein C kinase 98E),DRSC16791,inactive
CG12783,DRSC14538,inactive
asf1 (anti-silencing factor 1),DRSC11324,active
Tom7 (Translocase of outer membrane 7),DRSC05135,inactive
CAH6 (Carbonic anhydrase 6),DRSC15505,inactive
CG6707,DRSC10697,inactive
CG13443,DRSC06403,inactive
CG10674,DRSC09775,inactive
Shab (Shaker cognate b),DRSC08699,inactive
Muc30E (Mucin 30E),DRSC01101,inactive
vg (vestigial),DRSC07715,inactive
ABCB7 (ATP binding cassette subfamily B member 7),DRSC08603,inactive
CG14424,DRSC18472,inactive
CG42269,DRSC10672,inactive
ND-49L (NADH dehydrogenase (ubiquinone) 49 kDa subunit-like),DRSC14437,inactive
rudhira,DRSC22111,inactive
CG1492,DRSC19605,inactive
Xrp1,DRSC15283,inactive
CG4613,DRSC10435,inactive
Ino80 (INO80 complex subunit),DRSC14760,inactive
Or67a (Odorant receptor 67a),DRSC11240,inactive
Lsm11,DRSC06238,active
Ddr (Discoidin domain receptor),DRSC00922,inactive
CG13894,DRSC23205,inactive
tsl (torso-like),DRSC17090,inactive
CG2841,DRSC17699,inactive
Or85a (Odorant receptor 85a),DRSC16764,inactive
CG12609,DRSC19473,inactive
CG13071,DRSC09954,inactive
CG7886,DRSC16333,inactive
Usp7 (Ubiquitin-specific protease 7),DRSC19604,inactive
FLASH (FLICE-associated huge protein),DRSC06872,inactive
UQCR-14L (Ubiquinol-cytochrome c reductase 14 kDa subunit-like),DRSC15288,inactive
sdt (stardust),DRSC17861,inactive
CG2750,DRSC19867,inactive
CG7639,DRSC07026,inactive
CG3699,DRSC18642,inactive
wake (wide awake),DRSC16149,inactive
Rh2 (Rhodopsin 2),DRSC16821,inactive
CG31743 + CG34313,DRSC02781,inactive
Drep3 (DNA fragmentation factor-related protein 3),DRSC06312,inactive
GstD10 (Glutathione S transferase D10),DRSC15346,inactive
CG7326,DRSC20037,inactive
CG5217,DRSC15740,inactive
CG30058 + CG34312 + CG34235,DRSC22142,inactive
Pop5 (POP5 ribonuclease P/MRP subunit),DRSC10074,inactive
CG32271,DRSC08198,inactive
CG17300,DRSC10260,inactive
Cep290 (Centrosomal protein 290kDa),DRSC08359,inactive
dsx-c73A (doublesex cognate 73A),DRSC09914,inactive
CG14292,DRSC14772,inactive
Aduk (Another Drosophila Unc-51-like kinase),DRSC16451,active
Klp67A + CG34456,DRSC10420,inactive
fs(1)K10 (female sterile (1) K10),DRSC18775,inactive
CG34056,DRSC08374,inactive
CG42699,DRSC18341,inactive
MED26 (Mediator complex subunit 26),DRSC17148,inactive
gt (giant),DRSC18782,inactive
CG15330,DRSC18014,inactive
Ca-alpha1T (Ca[2+]-channel protein alpha[[1]] subunit T),DRSC18357,inactive
CG33769,DRSC11716,inactive

Continued; the last 20 above are carried over.
Gene,dsRNA,outcome
GstD10 (Glutathione S transferase D10),DRSC15346,inactive
CG7326,DRSC20037,inactive
CG5217,DRSC15740,inactive
CG30058 + CG34312 + CG34235,DRSC22142,inactive
Pop5 (POP5 ribonuclease P/MRP subunit),DRSC10074,inactive
CG32271,DRSC08198,inactive
CG17300,DRSC10260,inactive
Cep290 (Centrosomal protein 290kDa),DRSC08359,inactive
dsx-c73A (doublesex cognate 73A),DRSC09914,inactive
CG14292,DRSC14772,inactive
Aduk (Another Drosophila Unc-51-like kinase),DRSC16451,active
Klp67A + CG34456,DRSC10420,inactive
fs(1)K10 (female sterile (1) K10),DRSC18775,inactive
CG34056,DRSC08374,inactive
CG42699,DRSC18341,inactive
MED26 (Mediator complex subunit 26),DRSC17148,inactive
gt (giant),DRSC18782,inactive
CG15330,DRSC18014,inactive
Ca-alpha1T (Ca[2+]-channel protein alpha[[1]] subunit T),DRSC18357,inactive
CG33769,DRSC11716,inactive
CG16775,DRSC10225,inactive
rush (rush hour),DRSC18568,inactive
trh (trachealess),DRSC08739,inactive
Ids (Iduronate 2-sulfatase),DRSC08222,inactive
Dysb (Dysbindin),DRSC10730,inactive
CG14450,DRSC11707,inactive
obst-F (obstructor-F),DRSC10805,inactive
yuri (yuri gagarin),DRSC01454,inactive
hppy (happyhour),DRSC07014,inactive
Pnn (Pinin),DRSC16415,inactive
Cyp312a1 (Cytochrome P450 312a1),DRSC11128,inactive
CG15141,DRSC02441,inactive
Wdr59 (WD repeat domain 59),DRSC02771,inactive
CG42342,DRSC15011,inactive
Veneno,DRSC16537,active
CG33270,DRSC10584,inactive
CG14191,DRSC19546,inactive
CG14190,DRSC19545,inactive
CG13032,DRSC09912,inactive
CG10949,DRSC02112,inactive
CG34382,DRSC10166,inactive
cic (capicua),DRSC15708,inactive
CG9372,DRSC11068,inactive
Sirt2 (Sirtuin 2),DRSC15714,inactive
CG13712,DRSC08321,inactive
mof (males absent on the first),DRSC18795,inactive
PH4alphaEFB (prolyl-4-hydroxylase-alpha EFB),DRSC14950,inactive
tinc (tincar),DRSC14798,inactive
CG15927,DRSC19742,inactive
CG15459,DRSC20530,inactive
cwo (clockwork orange),DRSC17072,inactive
Rim (Rab3 interacting molecule),DRSC16224,inactive
Ugt37A2 (UDP-glycosyltransferase family 37 member A2),DRSC15861,inactive
inc (insomniac),DRSC18512,inactive
Dab (Disabled),DRSC11140,inactive
san (separation anxiety),DRSC07695,inactive
CG13681 (retired record),DRSC10929,inactive
CG2574,DRSC19862,inactive
CG42322,DRSC15113,inactive
CG34242,DRSC09185,inactive
Crk (Crk oncogene),DRSC17163,inactive
CG10911,DRSC06008,inactive
CG33679,DRSC01436,inactive
CG1304,DRSC20494,inactive
CG1824,DRSC19796,inactive
CG5267,DRSC06928,inactive
Alg13 (Alg13 UDP-N-acetylglucosaminyltransferase subunit),DRSC14864,inactive
TwdlH (TweedleH),DRSC14735,inactive
Arp6 (Actin-related protein 6),DRSC19326,inactive
bon (bonus),DRSC16914,inactive
CG12589,DRSC12215,inactive
Scp2 (Sarcoplasmic calcium-binding protein 2),DRSC16854,inactive
CG11249,DRSC11645,inactive
CG11619,DRSC09849,inactive
CG18367,DRSC06545,inactive
zye,DRSC11784,inactive
shd (shade),DRSC11129,inactive
CG8620,DRSC11020,inactive
Actbeta (Activin-beta),DRSC17217,inactive
CG32270 + CG32269,DRSC08195,inactive
CG14079,DRSC10083,inactive
Bruce (BIR repeat containing ubiquitin-conjugating enzyme),DRSC16015,inactive
Met75Cb + Met75Ca,DRSC11221,inactive
CG13699,DRSC10048,inactive
CG43163,DRSC10745,inactive
